In US20260209348A1:
Results are given in words; binding and its absence hold for the method and conditions named. Some results given as binding are weak or reduced against the parent protein; the word gives no strength.

The chains behind the UniProt entries cited, without tags or fusion partners. Where a name states a change or a piece, a line headed by the entry shows the natural chain unless it says otherwise.
UniProt Q01974: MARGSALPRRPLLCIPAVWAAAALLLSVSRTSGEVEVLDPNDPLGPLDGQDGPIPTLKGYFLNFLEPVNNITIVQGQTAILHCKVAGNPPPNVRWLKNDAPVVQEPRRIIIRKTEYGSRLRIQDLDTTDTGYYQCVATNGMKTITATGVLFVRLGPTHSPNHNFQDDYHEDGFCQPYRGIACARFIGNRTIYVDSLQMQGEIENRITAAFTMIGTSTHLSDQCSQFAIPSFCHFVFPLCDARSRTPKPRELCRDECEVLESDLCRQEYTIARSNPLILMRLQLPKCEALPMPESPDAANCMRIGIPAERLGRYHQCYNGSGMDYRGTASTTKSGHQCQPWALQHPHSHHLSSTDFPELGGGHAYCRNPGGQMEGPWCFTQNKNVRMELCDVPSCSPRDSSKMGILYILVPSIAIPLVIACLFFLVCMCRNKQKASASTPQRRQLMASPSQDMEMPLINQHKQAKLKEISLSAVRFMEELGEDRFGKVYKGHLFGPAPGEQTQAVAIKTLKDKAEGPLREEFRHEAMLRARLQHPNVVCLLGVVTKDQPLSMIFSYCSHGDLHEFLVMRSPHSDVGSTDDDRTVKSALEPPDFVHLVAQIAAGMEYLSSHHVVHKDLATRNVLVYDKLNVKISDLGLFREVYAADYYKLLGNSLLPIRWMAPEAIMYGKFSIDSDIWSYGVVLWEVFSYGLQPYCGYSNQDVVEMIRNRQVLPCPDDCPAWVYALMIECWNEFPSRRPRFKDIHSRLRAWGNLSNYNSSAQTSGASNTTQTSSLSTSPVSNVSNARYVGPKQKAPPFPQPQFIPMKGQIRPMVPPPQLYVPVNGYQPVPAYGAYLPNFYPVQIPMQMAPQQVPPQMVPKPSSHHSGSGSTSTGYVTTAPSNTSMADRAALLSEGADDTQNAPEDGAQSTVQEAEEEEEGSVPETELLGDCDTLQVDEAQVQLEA

B1: h6E6-082 scFv clone (scFv, V domains shown)
VH: EVQLVESGGGLVKPGGSLRLSCAASGFTFSKYGMSWVRQAPGKGLEWVSTISSGGGYTHYADSVKGRFTISRDNAKNSLYLQMNSLRAEDTAVYYCARHPRDFSYAMDYWGQGTTVTVSS
VL: EIVMTQSPATLSVSPGERATLSCKASQDVGHYLAWYQQKPGQAPRLLIYWASTRHTGIPARFSGSGSGTEFTLTISSLQSEDFAVYYCQQYNIYPWTFGQGTKVEIK
B2: h6E6-083 scFv clone (scFv, V domains shown)
VH: EVQLVESGGGLVKPGGSLRLSCAASGFTFSVYGMSWVRQAPGKGLEWVSTISSGGGYTHYAPSVKGRFTISRDNAKNSLYLQMNSLRAEDTAVYYCARHPRDFSYAMDYWGQGTTVTVSS
VL: EIVMTQSPATLSVSPGERATLSCKASQDVGHYVAWYQQKPGQAPRLLIYWASTRATGIPARFSGSGSGTEFTLTISSLQSEDFAVYYCQQYNIYPWTFGQGTKVEIK
B3: h6E6-084 scFv clone (scFv, V domains shown)
VH: EVQLVESGGGLVKPGGSLRLSCAASGFTFSQYGMSWVRQAPGKGLEWVSTISSGGGYTHYVQSVKGRFTISRDNAKNSLYLQMNSLRAEDTAVYYCARHPRDFSYAQDYWGQGTTVTVSS
VL: EIVMTQSPATLSVSPGERATLSCKASQDVGHYLAWYQQKPGQAPRLLIYWASTRATGIPARFSGSGSGTEFTLTISSLQSEDFAVYYCQQYNIYPWTFGQGTKVEIK
B4: h6E6-085 scFv clone (scFv, V domains shown)
VH: EVQLVESGGGLVKPGGSLRLSCAASGFTFSHYGANWVRQAPGKGLEWVSTISSGGGYTHYATSVKGRFTISRDNAKNSLYLQMNSLRAEDTAVYYCARHPRDFSYAVDYWGQGTTVTVSS
VL: EIVMTQSPATLSVSPGERATLSCRASQDVGHYVAWYQQKPGQAPRLLIYWASTSATGIPARFSGSGSGTEFTLTISSLQSEDFAVYYCQQYNIYPWTFGQGTKVEIK
B5: h6E6-086 scFv clone (scFv, V domains shown)
VH: EVQLVESGGGLVKPGGSLRLSCAASGFTFSQYGMSWVRQAPGKGLEWVSTISSGGGYTHYVTSVKGRFTISRDNAKNSLYLQMNSLRAEDTAVYYCARHPRDFSYAKDYWGQGTTVTVSS
VL: EIVMTQSPATLSVSPGERATLSCKASQDVGHYVAWYQQKPGQAPRLLIYWASTRATGIPARFSGSGSGTEFTLTISSLQSEDFAVYYCQQYNIYPWTFGQGTKVEIK
B6: h6E6-087 scFv clone (scFv, V domains shown)
VH: EVQLVESGGGLVKPGGSLRLSCAASGFTFSKYGMSWVRQAPGKGLEWVSTISSGGGYTHYVHSVKGRFTISRDNAKNSLYLQMNSLRAEDTAVYYCARHPRDFSYANDYWGQGTTVTVSS
VL: EIVMTQSPATLSVSPGERATLSCRASQDVGHYVAWYQQKPGQAPRLLIYWASTRATGIPARFSGSGSGTEFTLTISSLQSEDFAVYYCQQYNIYPWTFGQGTKVEIK
B7: h6E6-088 scFv clone (scFv, V domains shown)
VH: EVQLVESGGGLVKPGGSLRLSCAASGFTFSGYGASWVRQAPGKGLEWVSTISSGGGYTHYAPSVKGRFTISRDNAKNSLYLQMNSLRAEDTAVYYCARHPRDFSYAQDYWGQGTTVTVSS
VL: EIVMTQSPATLSVSPGERATLSCKASQDVGHYVAWYQQKPGQAPRLLIYWASTRHTGIPARFSGSGSGTEFTLTISSLQSEDFAVYYCQQYNIYPWTFGQGTKVEIK
B8: h6E6-089 scFv clone (scFv, V domains shown)
VH: EVQLVESGGGLVKPGGSLRLSCAASGFTFSDYGISWVRQAPGKGLEWVSTISSGGGYTHYVQSVKGRFTISRDNAKNSLYLQMNSLRAEDTAVYYCARHPRDFSYAMDYWGQGTTVTVSS
VL: EIVMTQSPATLSVSPGERATLSCKASQDVGHYLAWYQQKPGQAPRLLIYWASTRATGIPARFSGSGSGTEFTLTISSLQSEDFAVYYCQQYNIYPWTFGQGTKVEIK
B9: h6E6-090 scFv clone (scFv, V domains shown)
VH: EVQLVESGGGLVKPGGSLRLSCAASGFTFSTYGTSWVRQAPGKGLEWVSTISSGGGYTHYAPSVKGRFTISRDNAKNSLYLQMNSLRAEDTAVYYCARHPRDFSYALDYWGQGTTVTVSS
VL: EIVMTQSPATLSVSPGERATLSCKASQDVGHYLAWYQQKPGQAPRLLIYWASTRHTGIPARFSGSGSGTEFTLTISSLQSEDFAVYYCQQYNIYPWTFGQGTKVEIK
B10: h6E6-091 scFv clone (scFv, V domains shown)
VH: EVQLVESGGGLVKPGGSLRLSCAASGFTFSAYGLSWVRQAPGKGLEWVSTISSGGGYTHYAQSVKGRFTISRDNAKNSLYLQMNSLRAEDTAVYYCARHPRDFSYAFDYWGQGTTVTVSS
VL: EIVMTQSPATLSVSPGERATLSCKASQDVGHYLAWYQQKPGQAPRLLIYWASTRATGIPARFSGSGSGTEFTLTISSLQSEDFAVYYCQQYNIYPWTFGQGTKVEIK
B11: h6E6-092 scFv clone (scFv, V domains shown)
VH: EVQLVESGGGLVKPGGSLRLSCAASGFTFSSYGISWVRQAPGKGLEWVSTISSGGGYTHYAANVKGRFTISRDNAKNSLYLQMNSLRAEDTAVYYCARHPRDFSYAHDYWGQGTTVTVSS
VL: EIVMTQSPATLSVSPGERATLSCKASQDVGHYVAWYQQKPGQAPRLLIYWASTRHTGIPARFSGSGSGTEFTLTISSLQSEDFAVYYCQQYNIYPWTFGQGTKVEIK
B12: h6E6-093 scFv clone (scFv, V domains shown)
VH: EVQLVESGGGLVKPGGSLRLSCAASGFTFSGYGMNWVRQAPGKGLEWVSTISSGGGYTHYVESVKGRFTISRDNAKNSLYLQMNSLRAEDTAVYYCARHPRDFSYAMDYWGQGTTVTVSS
VL: EIVMTQSPATLSVSPGERATLSCKASQDVGHYLAWYQQKPGQAPRLLIYWASTRATGIPARFSGSGSGTEFTLTISSLQSEDFAVYYCQQYNIYPWTFGQGTKVEIK
B13: h6E6-094 scFv clone (scFv, V domains shown)
VH: EVQLVESGGGLVKPGGSLRLSCAASGFTFSRYGQSWVRQAPGKGLEWVSTISSGGGYTHYAPSVKGRFTISRDNAKNSLYLQMNSLRAEDTAVYYCARHPRDFSYALDYWGQGTTVTVSS
VL: EIVMTQSPATLSVSPGERATLSCRASQDVGHYVAWYQQKPGQAPRLLIYWASTRATGIPARFSGSGSGTEFTLTISSLQSEDFAVYYCQQYNIYPWTFGQGTKVEIK
B14: h6E6-095 scFv clone (scFv, V domains shown)
VH: EVQLVESGGGLVKPGGSLRLSCAASGFTFSGYGVSWVRQAPGKGLEWVSTISSGGGYTHYVDSVKGRFTISRDNAKNSLYLQMNSLRAEDTAVYYCARHPRDFSYALDYWGQGTTVTVSS
VL: EIVMTQSPATLSVSPGERATLSCRASQDVGHYLAWYQQKPGQAPRLLIYWASTRATGIPARFSGSGSGTEFTLTISSLQSEDFAVYYCQQYNIYPWTFGQGTKVEIK
B15: h6E6-096 scFv clone (scFv, V domains shown)
VH: EVQLVESGGGLVKPGGSLRLSCAASGFTFSNYGVSWVRQAPGKGLEWVSTISSGGGYTHYAPSVKGRFTISRDNAKNSLYLQMNSLRAEDTAVYYCARHPRDFSYAQDYWGQGTTVTVSS
VL: EIVMTQSPATLSVSPGERATLSCRASQDVGHYVAWYQQKPGQAPRLLIYWASTRATGIPARFSGSGSGTEFTLTISSLQSEDFAVYYCQQYNIYPWTFGQGTKVEIK
B16: h6E6-097 scFv clone (scFv, V domains shown)
VH: EVQLVESGGGLVKPGGSLRLSCAASGFTFSAYGMSWVRQAPGKGLEWVSTISSGGGYTHYVESVKGRFTISRDNAKNSLYLQMNSLRAEDTAVYYCARHPRDFSYAMDYWGQGTTVTVSS
VL: EIVMTQSPATLSVSPGERATLSCKASQDVGHYVAWYQQKPGQAPRLLIYWASTRATGIPARFSGSGSGTEFTLTISSLQSEDFAVYYCQQYNIYPWTFGQGTKVEIK
B17: h6E6-098 scFv clone (scFv, V domains shown)
VH: EVQLVESGGGLVKPGGSLRLSCAASGFTFSAYGVSWVRQAPGKGLEWVSTISSGGGYTYYVESVKGRFTISRDNAKNSLYLQMNSLRAEDTAVYYCARHPRDFSYAMDYWGQGTTVTVSS
VL: EIVMTQSPATLSVSPGERATLSCRASQDVGHYLAWYQQKPGQAPRLLIYWASTRATGIPARFSGSGSGTEFTLTISSLQSEDFAVYYCQQYNIYPWTFGQGTKVEIK
B18: h6E6-099 scFv clone (scFv, V domains shown)
VH: EVQLVESGGGLVKPGGSLRLSCAASGFTFSNYGMNWVRQAPGKGLEWVSTISSGGGYTHYAPSVKGRFTISRDNAKNSLYLQMNSLRAEDTAVYYCARHPRDFSYAMDYWGQGTTVTVSS
VL: EIVMTQSPATLSVSPGERATLSCKASQDVGHYVAWYQQKPGQAPRLLIYWASTRATGIPARFSGSGSGTEFTLTISSLQSEDFAVYYCQQYNIYPWTFGQGTKVEIK
B19: h6E6-100 scFv clone (scFv, V domains shown)
VH: EVQLVESGGGLVKPGGSLRLSCAASGFTFSHYGLSWVRQAPGKGLEWVSTISSGGGYTHYVDSVKGRFTISRDNAKNSLYLQMNSLRAEDTAVYYCARHPRDFSYANDYWGQGTTVTVSS
VL: EIVMTQSPATLSVSPGERATLSCKASQDVGHYVAWYQQKPGQAPRLLIYWASTRHTGIPARFSGSGSGTEFTLTISSLQSEDFAVYYCQQYNIYPWTFGQGTKVEIK
B20: h6E6-101 scFv clone (scFv, V domains shown)
VH: EVQLVESGGGLVKPGGSZRLSCAASGFTFSFYGMSWVRQAPGKGLEWVSTISSGGGYTYYAESVKGRFTISRDNAKNSLYLQMNSLRAEDTAVYYCARHPRDFSYAIDYWGQGTTVTVSS
VL: EIVMTQSPATLSVSPGERATLSCRASQDVGHYVAWYQQKPGQAPRLLIYWASTRATGIPARFSGSGSGTEFTLTISSLQSEDFAVYYCQQYNIYPWTFGQGTKVEIK
B21: h6E6-102 scFv clone (scFv, V domains shown)
VH: EVQLVESGGGLVKPGGSLRLSCAASGFTFSKYGLSWVRQAPGKGLEWVSTISSGGGYTHYVESVKGRFTISRDNAKNSLYLQMNSLRAEDTAVYYCARHPRDFSYASDYWGQGTTVTVSS
VL: EIVMTQSPATLSVSPGERATLSCKASQDVGHYVAWYQQKPGQAPRLLIYWASTRATGIPARFSGSGSGTEFTLTISSLQSEDFAVYYCQQYNIYPWTFGQGTKVEIK
B22: h6E6-103 scFv clone (scFv, V domains shown)
VH: EVQLVESGGGLVKPGGSLRLSCAASGFTFSNYGMSWVRQAPGKGLEWVSTISSGGGYTHYVDSVKGRFTISRDNAKNSLYLQMNSLRAEDTAVYYCARHPRDFSYAMDYWGQGTTVTVSS
VL: EIVMTQSPATLSVSPGERATLSCKASQDVGHYLAWYQQKPGQAPRLLIYWASTRATGIPARFSGSGSGTEFTLTISSLQSEDFAVYYCQQYNIYPWTFGQGTKVEIK

molecular target: human ROR2 (human) (UniProt Q01974); assay: ELISA, scFv clones

binding, binds:
B1, B2, B3, B4, B5, B6, B7, B8, B9, B10, B11, B12, B13, B14, B15, B16, B17, B18, B19, B20, B21, B22
